No constants are given. Whether binding was seen depends on the method and setting. For some of these results: A result given as binding can be weak or reduced; the word gives no strength. For some of these results: In cells and extracts the contact can be indirect. For some of these results: Sequences can lack the tags named with a protein.
Assays:
[1] = molecular target: T1, FLAG/HA-Pasha (DGCR8) (human) (UniProt Q8WYQ5); experiment: co-IP; tagged cDNAs transiently transfected into HEK293 cells; 1% Triton X-100 lysis buffer, sonicated; immunoprecipitation with anti-FLAG or anti-MYC antibodies
T1 sequence: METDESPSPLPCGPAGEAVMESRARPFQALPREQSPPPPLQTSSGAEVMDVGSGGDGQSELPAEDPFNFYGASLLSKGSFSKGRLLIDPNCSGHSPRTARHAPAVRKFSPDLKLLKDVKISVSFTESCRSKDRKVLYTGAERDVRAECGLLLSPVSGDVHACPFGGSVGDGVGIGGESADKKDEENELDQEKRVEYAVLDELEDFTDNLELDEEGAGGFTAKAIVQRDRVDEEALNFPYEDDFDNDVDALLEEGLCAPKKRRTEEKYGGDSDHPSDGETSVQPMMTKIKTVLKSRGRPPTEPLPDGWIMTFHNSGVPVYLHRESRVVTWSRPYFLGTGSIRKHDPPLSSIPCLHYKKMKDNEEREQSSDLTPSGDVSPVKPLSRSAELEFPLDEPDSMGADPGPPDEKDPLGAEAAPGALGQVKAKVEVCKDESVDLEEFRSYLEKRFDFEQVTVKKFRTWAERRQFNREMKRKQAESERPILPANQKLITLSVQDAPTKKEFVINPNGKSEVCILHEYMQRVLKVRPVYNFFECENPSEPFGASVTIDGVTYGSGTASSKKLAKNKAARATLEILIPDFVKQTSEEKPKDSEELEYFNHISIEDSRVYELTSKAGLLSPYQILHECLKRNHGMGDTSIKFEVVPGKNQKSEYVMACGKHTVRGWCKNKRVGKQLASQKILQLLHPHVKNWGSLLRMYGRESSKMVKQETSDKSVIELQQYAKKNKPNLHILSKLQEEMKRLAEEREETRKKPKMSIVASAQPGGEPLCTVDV

[2] = molecular target: human SUN1Δ6-FLAG/MYC (human); experiment: as above
[3] = molecular target: SUN1 Δ7–9 isoform (mouse (endogenous in C2C12)); experiment: co-IP; endogenous proteins; C2C12 myotube nuclear fraction lysate (1% Triton X-100 lysis buffer); immunoprecipitation with SUN1 isoform antibodies (Δ7 and Δ7–9), anti-HA as control; Drosha detected by blot
[4] = molecular target: SUN1 Δ7 (endogenous isoform precipitated by the Sun1 Δ7 antibody) (mouse (endogenous in C2C12)); experiment: as above
[5] = molecular target: nucleoplasmic domain of Sun1 Δ7,Δ9 (mouse); experiment: two-hybrid; ProNet Y2H system (Myriad Genetics); nucleoplasmic domain of Sun1 Δ7,Δ9 as bait; uterus/mammary gland and brain libraries

In the case of mouse MYC-SUN1 Δ7,Δ9, the binding [1] is reported as “binds”.

B1: FLAG/HA-Pasha (DGCR8) (protein, UniProt Q8WYQ5 1-773)
chain: T1 sequence
B1 was tested, and the binding [2] was “binds”.

B2: Drosha (endogenous, C2C12 myotubes) (protein, UniProt Q5HZJ0 1-1373)
chain: MQGNTCHRMSYHPGRGCPRGRGGHGARPSAPAFRPQNLRLLHPQQPPAQYQYEPPSAPSSSYSNSQAPSFMPPRPDFVPYPPPAAPSAQGPLPPCPVRPPYPNHQMRHPFPVPPCFPPMPPPMPCPNNPPASGAPPGQGTFPFMVPPPSMPHPPPPPVMPQQVNYQYPPGYSHSFPPPGFNSYQNNSSSFPPSANSSSTPHFRHLPPYSLPKAQNERRSPERLKHYDDHRHRDHSHGRGERHRSLERRERGRSPERRRPESRYRSDYDRGRTPPPRHRSYERSRERDRERHRHREARRSPSLERSYKKEYKRSGRSYALPVAPEPAGCTPELPGEMIKTTESWAPPPENVNHRSPSREKKRARWEEEKDRWSDSQGSGKEKNYTSIKEKEAEEVPPEKTEEEEEELLKPVWIRCTHSESYYSSDPMDQVGDSTVVGTSRLRDLYDKFEEELGNRQEKAKAARPPWEPPKTKLDEDLESSSESECETDDDSTCSSSSDSEVFDVIAEIKRKKAHPDRLHDELWYNDPGQMNDGPLCKCSAKARRTGIRHSIYPGEEAIKPCRPMTNNAGRLFHYRITVSPPTNFLTDRPTVIEYDDHEYIFEGFSMFAHAPLTNIPLCKVIRFNIDYTIHFIEEMMPENFCVKGLELFSLFLFRDILELYDWNLKGPLFEDSPPCCPRFHFMPRFVRFLPDGGKEVLSMHQILLYLLRCSKALVPEEEIANMLQWEELEWQKYAEECKGMIVTNPGTKPSSVRIDQLDREQFNPEVITFPIIVHFGIRPAQLSYAGDPQYQKLWKSYVKLRHLLANSPKVKQTDKQKLAQREEALQKIRQKNTMRREVTVELSSQGFWKTGIRSDVCQHAMMLPVLTHHIRYHQCLMHLDKLIGYTFQDRCLLQLAMTHPSHHLNFGMNPDHARNSLSNCGIRQPKYGDRKVHHMHMRKKGINTLINIMSRLGQDDPTPSRINHNERLEFLGDAVVEFLTSVHLYYLFPSLEEGGLATYRTAIVQNQHLAMLAKKLELDRFMLYAHGPDLCRESDLRHAMANCFEALIGAVYLEGSLEEAKQLFGRLLFNDPDLREVWLNYPLHPLQLQEPNTDRQLIETSPVLQKLTEFEEAIGVIFTHVRLLARAFTLRTVGFNHLTLGHNQRMEFLGDSIMQLVATEYLFIHFPDHHEGHLTLLRSSLVNNRTQAKVAEELGMQEYAITNDKTKRPVALRTKTLADLLESFIAALYIDKDLEYVHTFMNVCFFPRLKEFILNQDWNDPKSQLQQCCLTLRTEGKEPDIPLYKTLQTVGPSHARTYTVAVYFKGERIGCGKGPSIQQAEMGAAMDALEKYNFPQMAHQKRFIERKYRQELKEMRWEREHQEREPEEAEDIKK
B2 was tested, and the binding [3] was “no binding” and the binding [4] was “binds”.

B3: full length Drosha-GFP (enzyme, UniProt Q9NRR4 1-1374)
chain: MMQGNTCHRMSFHPGRGCPRGRGGHGARPSAPSFRPQNLRLLHPQQPPVQYQYEPPSAPSTTFSNSPAPNFLPPRPDFVPFPPPMPPSAQGPLPPCPIRPPFPNHQMRHPFPVPPCFPPMPPPMPCPNNPPVPGAPPGQGTFPFMMPPPSMPHPPPPPVMPQQVNYQYPPGYSHHNFPPPSFNSFQNNPSSFLPSANNSSSPHFRHLPPYPLPKAPSERRSPERLKHYDDHRHRDHSHGRGERHRSLDRRERGRSPDRRRQDSRYRSDYDRGRTPSRHRSYERSRERERERHRHRDNRRSPSLERSYKKEYKRSGRSYGLSVVPEPAGCTPELPGEIIKNTDSWAPPLEIVNHRSPSREKKRARWEEEKDRWSDNQSSGKDKNYTSIKEKEPEETMPDKNEEEEEELLKPVWIRCTHSENYYSSDPMDQVGDSTVVGTSRLRDLYDKFEEELGSRQEKAKAARPPWEPPKTKLDEDLESSSESECESDEDSTCSSSSDSEVFDVIAEIKRKKAHPDRLHDELWYNDPGQMNDGPLCKCSAKARRTGIRHSIYPGEEAIKPCRPMTNNAGRLFHYRITVSPPTNFLTDRPTVIEYDDHEYIFEGFSMFAHAPLTNIPLCKVIRFNIDYTIHFIEEMMPENFCVKGLELFSLFLFRDILELYDWNLKGPLFEDSPPCCPRFHFMPRFVRFLPDGGKEVLSMHQILLYLLRCSKALVPEEEIANMLQWEELEWQKYAEECKGMIVTNPGTKPSSVRIDQLDREQFNPDVITFPIIVHFGIRPAQLSYAGDPQYQKLWKSYVKLRHLLANSPKVKQTDKQKLAQREEALQKIRQKNTMRREVTVELSSQGFWKTGIRSDVCQHAMMLPVLTHHIRYHQCLMHLDKLIGYTFQDRCLLQLAMTHPSHHLNFGMNPDHARNSLSNCGIRQPKYGDRKVHHMHMRKKGINTLINIMSRLGQDDPTPSRINHNERLEFLGDAVVEFLTSVHLYYLFPSLEEGGLATYRTAIVQNQHLAMLAKKLELDRFMLYAHGPDLCRESDLRHAMANCFEALIGAVYLEGSLEEAKQLFGRLLFNDPDLREVWLNYPLHPLQLQEPNTDRQLIETSPVLQKLTEFEEAIGVIFTHVRLLARAFTLRTVGFNHLTLGHNQRMEFLGDSIMQLVATEYLFIHFPDHHEGHLTLLRSSLVNNRTQAKVAEELGMQEYAITNDKTKRPVALRTKTLADLLESFIAALYIDKDLEYVHTFMNVCFFPRLKEFILNQDWNDPKSQLQQCCLTLRTEGKEPDIPLYKTLQTVGPSHARTYTVAVYFKGERIGCGKGPSIQQAEMGAAMDALEKYNFPQMAHQKRFIERKYRQELKEMRWEREHQEREPDETEDIKK
B3 was tested, and the binding [2] was “binds”.

B4: Drosha protein domain spanning amino acids 204–727 (domain or fragment, UniProt Q9NRR4 204-727)
chain: FRHLPPYPLPKAPSERRSPERLKHYDDHRHRDHSHGRGERHRSLDRRERGRSPDRRRQDSRYRSDYDRGRTPSRHRSYERSRERERERHRHRDNRRSPSLERSYKKEYKRSGRSYGLSVVPEPAGCTPELPGEIIKNTDSWAPPLEIVNHRSPSREKKRARWEEEKDRWSDNQSSGKDKNYTSIKEKEPEETMPDKNEEEEEELLKPVWIRCTHSENYYSSDPMDQVGDSTVVGTSRLRDLYDKFEEELGSRQEKAKAARPPWEPPKTKLDEDLESSSESECESDEDSTCSSSSDSEVFDVIAEIKRKKAHPDRLHDELWYNDPGQMNDGPLCKCSAKARRTGIRHSIYPGEEAIKPCRPMTNNAGRLFHYRITVSPPTNFLTDRPTVIEYDDHEYIFEGFSMFAHAPLTNIPLCKVIRFNIDYTIHFIEEMMPENFCVKGLELFSLFLFRDILELYDWNLKGPLFEDSPPCCPRFHFMPRFVRFLPDGGKEVLSMHQILLYLLRCSKALVPEEEIANMLQWEE
For B4, the binding [5] was “binds”.

B5: Drosha protein domain spanning amino acids 57–674 (domain or fragment, UniProt Q9NRR4 57-674)
chain: SAPSTTFSNSPAPNFLPPRPDFVPFPPPMPPSAQGPLPPCPIRPPFPNHQMRHPFPVPPCFPPMPPPMPCPNNPPVPGAPPGQGTFPFMMPPPSMPHPPPPPVMPQQVNYQYPPGYSHHNFPPPSFNSFQNNPSSFLPSANNSSSPHFRHLPPYPLPKAPSERRSPERLKHYDDHRHRDHSHGRGERHRSLDRRERGRSPDRRRQDSRYRSDYDRGRTPSRHRSYERSRERERERHRHRDNRRSPSLERSYKKEYKRSGRSYGLSVVPEPAGCTPELPGEIIKNTDSWAPPLEIVNHRSPSREKKRARWEEEKDRWSDNQSSGKDKNYTSIKEKEPEETMPDKNEEEEEELLKPVWIRCTHSENYYSSDPMDQVGDSTVVGTSRLRDLYDKFEEELGSRQEKAKAARPPWEPPKTKLDEDLESSSESECESDEDSTCSSSSDSEVFDVIAEIKRKKAHPDRLHDELWYNDPGQMNDGPLCKCSAKARRTGIRHSIYPGEEAIKPCRPMTNNAGRLFHYRITVSPPTNFLTDRPTVIEYDDHEYIFEGFSMFAHAPLTNIPLCKVIRFNIDYTIHFIEEMMPENFCVKGLELFSLFLFRDILELYDWNLKGPLFEDSPP
B5 was tested, and the binding [5] was “binds”.

— paper PMC6853637
